Source: PMC8384837
Where a chain is given by its changes, count along the chain named. The list shows a part of the results. For part of these data: At the low end of the ranking the order means little. For part of these data: The source does not settle which construct or isoform was used.

Experiments:
Details in all cases: yeast three-hybrid, YBZ-1, SC-Leu-His + 0.5 mM 3-AT, 4 days
[1] = target: T1, PUM1 PUF domain R1-QFR R2-VFQ R7-NPG S863Q + R864F + Q867R + N899V + Y900F + S1079N + N1080P + E1083G (UniProt Q14671)
T1 sequence: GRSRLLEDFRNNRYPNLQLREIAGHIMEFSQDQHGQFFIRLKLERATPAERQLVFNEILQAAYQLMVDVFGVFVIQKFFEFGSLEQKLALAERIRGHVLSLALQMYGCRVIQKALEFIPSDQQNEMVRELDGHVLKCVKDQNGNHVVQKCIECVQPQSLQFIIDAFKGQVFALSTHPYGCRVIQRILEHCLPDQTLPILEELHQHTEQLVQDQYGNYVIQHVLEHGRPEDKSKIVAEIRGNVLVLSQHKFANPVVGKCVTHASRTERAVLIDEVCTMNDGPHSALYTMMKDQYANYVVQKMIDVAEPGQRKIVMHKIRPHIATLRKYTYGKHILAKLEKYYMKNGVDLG

[2] = target: T2, PUM1 PUF domain R2-VFQ R3-THE R4-TFR N899V + Y900F + C935T + R936H + Q939E + N971T + H972F + Q975R (UniProt Q14671)
T2 sequence: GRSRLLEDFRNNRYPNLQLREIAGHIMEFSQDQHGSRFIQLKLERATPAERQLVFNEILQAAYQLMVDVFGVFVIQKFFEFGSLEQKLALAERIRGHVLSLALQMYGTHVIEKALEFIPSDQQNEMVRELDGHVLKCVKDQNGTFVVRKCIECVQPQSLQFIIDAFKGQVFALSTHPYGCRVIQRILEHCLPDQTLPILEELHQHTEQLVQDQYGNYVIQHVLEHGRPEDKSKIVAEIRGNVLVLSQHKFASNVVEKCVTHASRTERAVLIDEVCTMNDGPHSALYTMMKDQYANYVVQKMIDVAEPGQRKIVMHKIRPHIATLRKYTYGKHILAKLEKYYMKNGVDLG

[3] = target: T3, PUM1 PUF domain R3-THE R4-TFR C935T + R936H + Q939E + N971T + H972F + Q975R (UniProt Q14671)
T3 sequence: T2 sequence with V72N, F73Y

[4] = target: T4, PUM1 PUF domain R3-THE R4-TFR R7-NPG C935T + R936H + Q939E + N971T + H972F + Q975R + S1079N + N1080P + E1083G (Homo sapiens) (UniProt Q14671)
T4 sequence: T2 sequence with V72N, F73Y, S252N, N253P, E256G

[5] = target: T5, PUM1 PUF domain R5-PHQ R6-SWD C1007P + R1008H + N1043S + Y1044W + Q1047D (UniProt Q14671)
T5 sequence: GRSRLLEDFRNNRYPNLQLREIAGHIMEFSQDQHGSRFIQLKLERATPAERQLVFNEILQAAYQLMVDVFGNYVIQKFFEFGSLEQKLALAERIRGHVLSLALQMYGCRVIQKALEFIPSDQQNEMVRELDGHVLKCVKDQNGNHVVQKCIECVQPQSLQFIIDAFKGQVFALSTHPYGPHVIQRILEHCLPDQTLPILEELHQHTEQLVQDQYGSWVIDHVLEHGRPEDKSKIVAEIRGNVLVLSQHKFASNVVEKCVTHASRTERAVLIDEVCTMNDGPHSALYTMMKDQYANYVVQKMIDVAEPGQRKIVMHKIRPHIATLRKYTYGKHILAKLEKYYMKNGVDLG

[6] = target: T6, PUM1 PUF domain R6-SWD R7-NPG N1043S + Y1044W + Q1047D + S1079N + N1080P + E1083G (Homo sapiens) (UniProt Q14671)
T6 sequence: T5 sequence with P180C, H181R, S252N, N253P, E256G

[7] = target: T7, PUM1 PUF domain R3-THE R4-TFR R7-NPG C935T + R936H + Q939E + N971T + H972F + Q975R + S1079N + N1080P + E1083G (UniProt Q14671)
T7 sequence: T2 sequence with V72N, F73Y, S252N, N253P, E256G

[8] = target: T8, PUM1 PUF domain R6-SWD R7-NPG N1043S + Y1044W + Q1047D + S1079N + N1080P + E1083G (UniProt Q14671)
T8 sequence: T5 sequence with P180C, H181R, S252N, N253P, E256G

Row | Sequence | binding signal (log2 enrichment (interaction score)) [1] | binding signal (log2 enrichment (interaction score)) [2] | binding signal (log2 enrichment (interaction score)) [3] | binding signal (log2 enrichment (interaction score)) [4] | binding signal (log2 enrichment (interaction score)) [5] | binding signal (log2 enrichment (interaction score)) [6] | binding signal (log2 enrichment (interaction score)) [7] | binding signal (log2 enrichment (interaction score)) [8]
1 | GGCUAGAACUAGUGGAUCCCCCGGCGCCCGGCGGCUCGAGCCCGGGUAAGUUUAACUAGUCUGCAUGCCGCCGGGCGCCAUGCCUGCAGGUCGACUCUAGAAAACAUG | -5.93 | -5.06 | -7.54 | -1.62 | -8.99 | -1.42 | – | –
2 | GGCUAGAACUAGUGGAUCCCCCGGCGCCCGGCGGCUCGAGCCCGGGUAAGUGGCUAAAGUCUGCAUGCCGCCGGGCGCCAUGCCUGCAGGUCGACUCUAGAAAACAUG | -6.16 | -5.56 | -6.11 | – | -8.6 | – | -2.07 | –
3 | GGCUAGAACUAGUGGAUCCCCCGGCGCCCGGCGGCUCGAGCCCGGGUAAGUUUAAGGAGUCUGCAUGCCGCCGGGCGCCAUGCCUGCAGGUCGACUCUAGAAAACAUG | -5.79 | -6.18 | -7.07 | < -1.14 | -7.95 | -1.29 | – | –
4 | GGCUAGAACUAGUGGAUCCCCCGGCGCCCGGCGGCUCGAGCCCGGGUAAGGGGAAAUCGUCUGCAUGCCGCCGGGCGCCAUGCCUGCAGGUCGACUCUAGAAAACAUG | -6.5 | -3.59 | -7.55 | – | -8.44 | – | – | –
5 | GGCUAGAACUAGUGGAUCCCCCGGCGCCCGGCGGCUCGAGCCCGGGUAAGUUUAGGUAGUCUGCAUGCCGCCGGGCGCCAUGCCUGCAGGUCGACUCUAGAAAACAUG | -6.37 | -5.78 | -6.64 | -1.89 | -8.66 | -1.78 | – | –
6 | GGCUAGAACUAGUGGAUCCCCCGGCGCCCGGCGGCUCGAGCCCGGGUAAGUUUAAGUCGUCUGCAUGCCGCCGGGCGCCAUGCCUGCAGGUCGACUCUAGAAAACAUG | -5.74 | -5.29 | -7.04 | -0.97 | -8.69 | -1.15 | – | –
7 | GGCUAGAACUAGUGGAUCCCCCGGCGCCCGGCGGCUCGAGCCCGGGUAAGUGGAUAUCGUCUGCAUGCCGCCGGGCGCCAUGCCUGCAGGUCGACUCUAGAAAACAUG | < -6.45 | -5.75 | -7.08 | – | < -7.63 | – | < -2.11 | –
8 | GGCUAGAACUAGUGGAUCCCCCGGCGCCCGGCGGCUCGAGCCCGGGUAAGUGCACGUCGUCUGCAUGCCGCCGGGCGCCAUGCCUGCAGGUCGACUCUAGAAAACAUG | < -6.25 | -5.41 | -7.35 | – | -8.04 | -1.6 | -2.58 | –
9 | GGCUAGAACUAGUGGAUCCCCCGGCGCCCGGCGGCUCGAGCCCGGGUAAGUUGAGGUCGUCUGCAUGCCGCCGGGCGCCAUGCCUGCAGGUCGACUCUAGAAAACAUG | -6.16 | -5.38 | -7.83 | – | -7.93 | – | -3.8 | –
10 | GGCUAGAACUAGUGGAUCCCCCGGCGCCCGGCGGCUCGAGCCCGGGUAAGUAUAAGUAGUCUGCAUGCCGCCGGGCGCCAUGCCUGCAGGUCGACUCUAGAAAACAUG | -5.96 | -5.47 | -6.77 | – | -7.86 | – | -3.85 | –
11 | GGCUAGAACUAGUGGAUCCCCCGGCGCCCGGCGGCUCGAGCCCGGGUAAGUCUAAAUCGUCUGCAUGCCGCCGGGCGCCAUGCCUGCAGGUCGACUCUAGAAAACAUG | -6.21 | -5.73 | -4.9 | -1.42 | -9.76 | -1.58 | – | –
12 | GGCUAGAACUAGUGGAUCCCCCGGCGCCCGGCGGCUCGAGCCCGGGUAAGGUUAAGAAGUCUGCAUGCCGCCGGGCGCCAUGCCUGCAGGUCGACUCUAGAAAACAUG | -7.43 | -5.09 | < -8.15 | – | – | – | < -2.75 | –
13 | GGCUAGAACUAGUGGAUCCCCCGGCGCCCGGCGGCUCGAGCCCGGGUAAGUUUAAAAAGUCUGCAUGCCGCCGGGCGCCAUGCCUGCAGGUCGACUCUAGAAAACAUG | -3.5 | -6.15 | -6.62 | – | -8.99 | – | -2.16 | -2.05
14 | GGCUAGAACUAGUGGAUCCCCCGGCGCCCGGCGGCUCGAGCCCGGGUAAGUUGACAGAGUCUGCAUGCCGCCGGGCGCCAUGCCUGCAGGUCGACUCUAGAAAACAUG | -7.51 | -5.5 | -7.08 | – | -7.76 | – | -2.51 | –
15 | GGCUAGAACUAGUGGAUCCCCCGGCGCCCGGCGGCUCGAGCCCGGGUAAGUUUACUUAGUCUGCAUGCCGCCGGGCGCCAUGCCUGCAGGUCGACUCUAGAAAACAUG | -5.63 | -4.18 | -7.35 | -1.32 | -8.02 | -1.6 | – | –

Single values from the list:
binding signal (log2 enrichment (interaction score)) [2] with GGCUAGAACUAGUGGAUCCCCCGGCGCCCGGCGGCUCGAGCCCGGGUAAGUUUACUUAGUCUGCAUGCCGCCGGGCGCCAUGCCUGCAGGUCGACUCUAGAAAACAUG reads -4.18
binding signal (log2 enrichment (interaction score)) [7] with GGCUAGAACUAGUGGAUCCCCCGGCGCCCGGCGGCUCGAGCCCGGGUAAGGUUAAGAAGUCUGCAUGCCGCCGGGCGCCAUGCCUGCAGGUCGACUCUAGAAAACAUG reads < -2.75
